For 19 compounds, Odor results are on record in US9212132B2, “(Meth)acrylic acid ester, activation energy ray curing composition, and inkjet recording ink” (Ricoh Company Ltd., priority 2011, dated 2015).

Each structure is given as a SMILES string.

The data set is described as follows: Evaluation of odor (discomfort when smelling each ink). Also noted: key: A: No smell was sensed.; B: Slight smell was sensed but it did not give discomfort.; C: Distinct odor gave discomfort.; Distinct odor gave significant discomfort. The following applies: ink: 950 mg monomer + 50 mg IRGACURE 907.
On to `C=C(C)C(=O)OCCSCC` [Ref. Syn. Ex. 2, 2-methacryloxyethylethyl sulfide, reference compound], for which the Odor entry is reported as “D”.
As for `C=CC(=O)OCCOC(=O)N1CCCCC1` [E-1], the Odor entry is “B”.
As to `C=C(C)C(=O)OCC(COC(=O)N(CC)CC)OC(=O)C(=C)C` (stereo not shown) [G-4], the Odor result was “A”.
Turning to `C=CC(=O)OCCOc1ccccc1` [Commercial product (a), reference compound], the Odor entry was “D”.
Regarding `C=C(C)C(=O)OCCOC(=O)N(CC)CC` [B-2], the Odor result is listed as “A”.
With `C=CC(=O)OCCOC(=O)NCCCC` [Commercial product (c), reference compound], the Odor result was “C”.
The result for `C=CC(=O)OCCSCC` [Ref. Syn. Ex. 1, 2-acryloxy ethylethyl sulfide, reference compound] reads “D”.
As to `C=C(C)C(=O)OCCN1CCOCC1` [Commercial product (e), reference compound], the Odor entry is reported as “C”.
Then `C=CC(=O)OCC(COC(=O)N(CC)CC)OC(=O)C=C` (stereo not shown) [G-3], with “A”; and `C=C(C)C(=O)OCCOC(=O)N1CCOCC1` [D-2], with “A”; and `C=CC(=O)OCC(CC)(COC(=O)C=C)COC(=O)N(CC)CC` [J-3], with “A”.
The result for `C=CC(=O)OCCN1CCOCC1` [Commercial product (d), reference compound] reads “C”.
The result for `C=C(C)C(=O)OC1CCN(C(=O)OCC)CC1` [F-2] reads “A”.
For the compound `C=C(C)C(=O)OCC(CC)(COC(=O)C(=C)C)COC(=O)N(CC)CC` [J-4], the Odor result is listed as “A”.
Then `C=CC(=O)OC1CCN(C(=O)OCC)CC1` [F-1], with “B”; and `C=CC(=O)OCCOC(=O)N1CCOCC1` [D-1], with “B”; and `C=C(C)C(=O)OCCOC(=O)N1CCCCC1` [E-2], with “A”.
`C=CC(=O)OCCOC(=O)N(CC)CC` [B-1]: the Odor result is “B”.
Then `C=C(C)C(=O)OCCOc1ccccc1` [Commercial product (b), reference compound], with “D”.
